Measurements published in patent EP1174152B1, “Inclusion complex of an opioid peptide with cyclodextrin” (COUNCIL OF SCIENTIFIC AND INDUSTRIAL RESEARCH, priority 2000, dated 2002).
At least one peptide structure holds a part that was inferred or is arguable (an end, a ring closure or a residue). For at least one compound, name, drawing or mass did not settle the structure.

What was measured:
rats = assay: Analgesia by tail flick latencies (t.f.l.) assay in rats; type: in vivo
[1] = test system: oedema caused by carrageenin; assay: Anti-inflammatory action: inhibition of oedema caused by carrageenin; type: in vivo; conditions: rats, dose (p.o.) 50 mg/kg, given 1 hour before carrageenin

**Q.** With `CC(C)NC(=O)CNC(=O)[C@H](Cc1ccccc1)N(C)C(=O)CNC(=O)[C@@H](C)NC(=O)[C@@H](N)Cc1ccc(O)cc1` [L-Tyrosyl-D-alanyl-glycyl-N-methylphenylalanyl-glycyl-isopropylamide] as the compound, how does the “rat ED” value (rats; rat, value used to select the doses of the toxicity study, route and test not stated) read?
**A.** 3.0 mg/kg

**Q.** What about the “ED50 P. O. route” value (rats; rats, tail flick, per oral) of the same compound?
**A.** 22.30 mg/kg

**Q.** What about the “ED50 S.C. route” value (rats; rats, tail flick, subcutaneous) of the same compound?
**A.** 2.58 mg/kg

**Q.** And the “Anti-inflammatory action (210 min)” value [1]?
**A.** 19.6
